Some of the results follow.
Compound: CC1Cc2ccccc2N1C(=O)C1CCCN(C1)C(=O)CCl (mixture of isomers) [TRIM25 ligand 11 (diastereomer mixture)]
Assay: probe-labelled cysteine peptide fold change vs DMSO (competition) (log2 fold change); higher = less target engagement (more negative = stronger competition)
Details: THP-1, incubation time: 4 h
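Further: competitive chemoproteomic profiling in live THP-1 cells with an iodoacetamide desthiobiotin (IA-DTB) probe, comparing probe-labelled peptide intensities in compound-treated cells against DMSO-treated controls.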

Chains of the proteins cited; added tags and fusions are not shown. Lines headed by an entry give the natural chain unless they say otherwise; changes in a name come on top.
UniProt Q15269: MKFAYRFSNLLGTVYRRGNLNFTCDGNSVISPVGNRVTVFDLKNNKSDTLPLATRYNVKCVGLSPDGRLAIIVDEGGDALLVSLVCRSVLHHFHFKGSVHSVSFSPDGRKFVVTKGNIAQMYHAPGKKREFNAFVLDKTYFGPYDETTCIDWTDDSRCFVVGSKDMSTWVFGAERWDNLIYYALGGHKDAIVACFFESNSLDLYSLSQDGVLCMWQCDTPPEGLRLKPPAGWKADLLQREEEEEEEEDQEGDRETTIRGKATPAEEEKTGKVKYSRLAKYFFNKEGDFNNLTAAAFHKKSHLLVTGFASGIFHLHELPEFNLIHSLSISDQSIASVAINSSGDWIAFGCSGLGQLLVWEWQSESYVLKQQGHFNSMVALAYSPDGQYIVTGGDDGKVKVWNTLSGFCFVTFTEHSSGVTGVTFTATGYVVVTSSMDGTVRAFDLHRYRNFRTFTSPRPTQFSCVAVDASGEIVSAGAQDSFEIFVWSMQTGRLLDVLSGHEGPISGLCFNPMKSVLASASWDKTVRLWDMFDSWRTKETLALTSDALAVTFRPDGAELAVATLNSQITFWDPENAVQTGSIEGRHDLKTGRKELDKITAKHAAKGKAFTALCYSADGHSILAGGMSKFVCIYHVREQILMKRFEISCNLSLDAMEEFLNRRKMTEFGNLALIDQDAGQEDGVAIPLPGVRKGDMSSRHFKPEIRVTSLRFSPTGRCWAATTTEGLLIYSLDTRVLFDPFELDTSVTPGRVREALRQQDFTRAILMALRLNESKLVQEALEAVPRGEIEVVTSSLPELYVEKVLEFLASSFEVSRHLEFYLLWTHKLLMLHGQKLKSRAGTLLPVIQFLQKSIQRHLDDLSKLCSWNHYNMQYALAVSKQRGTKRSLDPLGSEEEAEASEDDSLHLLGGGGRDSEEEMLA
UniProt P61106, whole entry, looked up: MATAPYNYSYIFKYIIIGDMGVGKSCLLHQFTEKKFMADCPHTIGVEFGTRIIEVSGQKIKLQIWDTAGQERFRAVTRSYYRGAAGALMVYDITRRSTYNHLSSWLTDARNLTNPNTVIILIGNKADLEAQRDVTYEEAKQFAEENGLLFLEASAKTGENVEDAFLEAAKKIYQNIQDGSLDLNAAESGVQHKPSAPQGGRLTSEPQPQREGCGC
UniProt P49023, whole entry, looked up: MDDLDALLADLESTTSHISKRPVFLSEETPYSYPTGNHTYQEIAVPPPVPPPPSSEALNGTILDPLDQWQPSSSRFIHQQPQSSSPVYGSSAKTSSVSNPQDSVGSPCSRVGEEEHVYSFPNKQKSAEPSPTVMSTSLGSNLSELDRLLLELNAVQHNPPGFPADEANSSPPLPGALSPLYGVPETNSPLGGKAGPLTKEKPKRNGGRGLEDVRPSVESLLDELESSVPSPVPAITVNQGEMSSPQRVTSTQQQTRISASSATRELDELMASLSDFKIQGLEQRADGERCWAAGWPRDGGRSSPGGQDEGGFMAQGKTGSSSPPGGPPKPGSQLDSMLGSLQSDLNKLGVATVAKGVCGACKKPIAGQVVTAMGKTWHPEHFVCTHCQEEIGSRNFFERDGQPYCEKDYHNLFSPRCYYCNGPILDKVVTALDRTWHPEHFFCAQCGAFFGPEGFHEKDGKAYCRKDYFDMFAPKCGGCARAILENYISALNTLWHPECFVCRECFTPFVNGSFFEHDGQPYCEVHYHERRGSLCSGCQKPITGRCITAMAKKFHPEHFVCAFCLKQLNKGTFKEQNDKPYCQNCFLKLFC
UniProt P11216: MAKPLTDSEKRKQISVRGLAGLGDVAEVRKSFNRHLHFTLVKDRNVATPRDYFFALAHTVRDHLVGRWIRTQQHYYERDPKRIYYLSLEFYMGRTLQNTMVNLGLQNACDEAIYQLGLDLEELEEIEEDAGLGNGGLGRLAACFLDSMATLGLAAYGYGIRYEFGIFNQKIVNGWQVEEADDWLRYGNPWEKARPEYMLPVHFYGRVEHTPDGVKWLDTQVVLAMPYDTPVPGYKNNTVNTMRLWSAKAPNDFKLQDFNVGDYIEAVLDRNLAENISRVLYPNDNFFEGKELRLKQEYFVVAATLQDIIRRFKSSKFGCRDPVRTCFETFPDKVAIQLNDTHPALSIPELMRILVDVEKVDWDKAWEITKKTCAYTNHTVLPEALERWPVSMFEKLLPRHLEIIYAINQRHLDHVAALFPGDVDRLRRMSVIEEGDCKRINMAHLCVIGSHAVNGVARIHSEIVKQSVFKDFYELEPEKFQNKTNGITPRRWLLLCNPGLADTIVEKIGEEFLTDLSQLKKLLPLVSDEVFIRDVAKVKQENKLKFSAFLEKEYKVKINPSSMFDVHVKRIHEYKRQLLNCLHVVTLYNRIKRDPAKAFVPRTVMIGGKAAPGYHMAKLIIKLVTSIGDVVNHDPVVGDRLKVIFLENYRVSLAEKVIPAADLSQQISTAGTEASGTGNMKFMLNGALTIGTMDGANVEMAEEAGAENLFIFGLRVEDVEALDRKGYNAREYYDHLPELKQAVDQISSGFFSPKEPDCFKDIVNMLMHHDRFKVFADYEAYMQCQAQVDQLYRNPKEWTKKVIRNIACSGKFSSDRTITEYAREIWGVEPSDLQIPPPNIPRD
UniProt Q9H0R6: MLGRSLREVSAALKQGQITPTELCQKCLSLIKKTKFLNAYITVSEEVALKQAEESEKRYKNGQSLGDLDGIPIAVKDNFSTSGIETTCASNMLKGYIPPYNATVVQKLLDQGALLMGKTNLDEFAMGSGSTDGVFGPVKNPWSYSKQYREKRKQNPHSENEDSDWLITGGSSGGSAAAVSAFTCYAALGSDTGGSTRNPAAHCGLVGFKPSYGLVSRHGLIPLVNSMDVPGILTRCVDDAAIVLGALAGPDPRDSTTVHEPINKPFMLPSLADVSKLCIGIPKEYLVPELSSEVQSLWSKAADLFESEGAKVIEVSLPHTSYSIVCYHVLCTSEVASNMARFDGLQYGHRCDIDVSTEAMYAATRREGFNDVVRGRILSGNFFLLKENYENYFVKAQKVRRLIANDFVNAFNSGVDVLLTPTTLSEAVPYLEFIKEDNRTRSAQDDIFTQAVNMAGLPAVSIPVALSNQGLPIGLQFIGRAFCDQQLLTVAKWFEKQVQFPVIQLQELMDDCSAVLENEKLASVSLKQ
UniProt Q92878: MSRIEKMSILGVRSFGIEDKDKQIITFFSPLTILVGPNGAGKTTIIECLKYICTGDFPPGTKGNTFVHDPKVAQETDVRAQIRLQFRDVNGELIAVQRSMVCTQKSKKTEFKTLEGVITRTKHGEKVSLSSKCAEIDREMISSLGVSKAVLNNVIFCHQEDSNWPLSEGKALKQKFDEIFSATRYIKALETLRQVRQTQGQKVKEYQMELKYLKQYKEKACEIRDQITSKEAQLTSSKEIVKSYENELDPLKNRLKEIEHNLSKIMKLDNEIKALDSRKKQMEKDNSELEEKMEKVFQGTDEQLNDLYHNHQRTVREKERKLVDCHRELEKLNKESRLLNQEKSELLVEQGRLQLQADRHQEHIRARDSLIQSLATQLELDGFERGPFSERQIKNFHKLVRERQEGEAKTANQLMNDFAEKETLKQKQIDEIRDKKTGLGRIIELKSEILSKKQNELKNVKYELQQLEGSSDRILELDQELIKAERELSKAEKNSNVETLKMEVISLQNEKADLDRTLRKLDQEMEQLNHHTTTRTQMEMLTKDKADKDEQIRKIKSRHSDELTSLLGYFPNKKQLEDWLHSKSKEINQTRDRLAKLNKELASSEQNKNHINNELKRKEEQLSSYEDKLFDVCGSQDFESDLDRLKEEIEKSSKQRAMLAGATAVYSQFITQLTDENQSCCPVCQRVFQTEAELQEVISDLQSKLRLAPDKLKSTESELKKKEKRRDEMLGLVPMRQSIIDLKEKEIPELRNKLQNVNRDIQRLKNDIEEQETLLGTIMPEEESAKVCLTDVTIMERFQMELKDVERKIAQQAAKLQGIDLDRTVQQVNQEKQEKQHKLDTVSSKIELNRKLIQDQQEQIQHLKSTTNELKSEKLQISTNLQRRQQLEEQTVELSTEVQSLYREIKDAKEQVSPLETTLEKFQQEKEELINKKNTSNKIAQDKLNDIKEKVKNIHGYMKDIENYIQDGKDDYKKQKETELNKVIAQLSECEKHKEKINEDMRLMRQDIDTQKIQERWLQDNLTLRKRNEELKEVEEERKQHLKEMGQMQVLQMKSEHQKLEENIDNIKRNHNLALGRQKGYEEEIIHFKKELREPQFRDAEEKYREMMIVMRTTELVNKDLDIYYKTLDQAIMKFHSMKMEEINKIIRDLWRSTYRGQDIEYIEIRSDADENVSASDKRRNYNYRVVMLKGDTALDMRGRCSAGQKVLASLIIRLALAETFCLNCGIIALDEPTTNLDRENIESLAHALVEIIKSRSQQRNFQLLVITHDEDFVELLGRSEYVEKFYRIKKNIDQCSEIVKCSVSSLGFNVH
UniProt P20338: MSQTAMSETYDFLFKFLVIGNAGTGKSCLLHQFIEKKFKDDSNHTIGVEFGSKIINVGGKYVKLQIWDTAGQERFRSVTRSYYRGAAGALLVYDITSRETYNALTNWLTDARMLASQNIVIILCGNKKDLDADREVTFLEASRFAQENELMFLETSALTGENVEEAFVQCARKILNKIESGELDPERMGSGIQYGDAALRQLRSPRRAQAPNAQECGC
UniProt Q15286: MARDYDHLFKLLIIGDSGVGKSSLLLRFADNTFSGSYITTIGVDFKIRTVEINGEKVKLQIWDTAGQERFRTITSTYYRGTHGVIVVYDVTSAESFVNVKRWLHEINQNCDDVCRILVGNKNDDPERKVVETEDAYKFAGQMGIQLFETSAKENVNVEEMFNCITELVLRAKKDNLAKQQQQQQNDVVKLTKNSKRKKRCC
UniProt Q7Z5L2: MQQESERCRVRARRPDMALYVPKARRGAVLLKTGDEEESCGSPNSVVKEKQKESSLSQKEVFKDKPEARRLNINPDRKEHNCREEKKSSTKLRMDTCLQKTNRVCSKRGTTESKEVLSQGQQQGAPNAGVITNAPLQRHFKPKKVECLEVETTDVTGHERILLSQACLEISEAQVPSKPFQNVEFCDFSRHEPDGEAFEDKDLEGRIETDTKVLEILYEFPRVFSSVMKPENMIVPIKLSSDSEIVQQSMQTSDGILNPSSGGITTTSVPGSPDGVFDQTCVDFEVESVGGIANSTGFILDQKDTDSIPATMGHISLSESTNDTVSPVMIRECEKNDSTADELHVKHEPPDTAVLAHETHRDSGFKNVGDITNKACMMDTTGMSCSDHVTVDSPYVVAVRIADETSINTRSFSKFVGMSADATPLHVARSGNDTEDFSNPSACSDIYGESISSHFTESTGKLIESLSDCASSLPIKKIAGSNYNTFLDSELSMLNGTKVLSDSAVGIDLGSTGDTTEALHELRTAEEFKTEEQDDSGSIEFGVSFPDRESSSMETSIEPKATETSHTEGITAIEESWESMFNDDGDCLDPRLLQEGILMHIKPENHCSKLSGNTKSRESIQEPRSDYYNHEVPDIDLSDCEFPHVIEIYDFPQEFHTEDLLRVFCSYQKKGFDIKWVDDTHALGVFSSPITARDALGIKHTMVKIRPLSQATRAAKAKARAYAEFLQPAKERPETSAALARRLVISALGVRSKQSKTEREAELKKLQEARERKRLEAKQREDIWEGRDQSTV
UniProt P61018: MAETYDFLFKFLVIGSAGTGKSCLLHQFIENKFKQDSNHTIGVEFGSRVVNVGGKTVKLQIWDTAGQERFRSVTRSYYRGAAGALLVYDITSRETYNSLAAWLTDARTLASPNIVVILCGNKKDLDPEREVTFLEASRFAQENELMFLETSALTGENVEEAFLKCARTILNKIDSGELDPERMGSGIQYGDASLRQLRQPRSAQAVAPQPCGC
UniProt O00391: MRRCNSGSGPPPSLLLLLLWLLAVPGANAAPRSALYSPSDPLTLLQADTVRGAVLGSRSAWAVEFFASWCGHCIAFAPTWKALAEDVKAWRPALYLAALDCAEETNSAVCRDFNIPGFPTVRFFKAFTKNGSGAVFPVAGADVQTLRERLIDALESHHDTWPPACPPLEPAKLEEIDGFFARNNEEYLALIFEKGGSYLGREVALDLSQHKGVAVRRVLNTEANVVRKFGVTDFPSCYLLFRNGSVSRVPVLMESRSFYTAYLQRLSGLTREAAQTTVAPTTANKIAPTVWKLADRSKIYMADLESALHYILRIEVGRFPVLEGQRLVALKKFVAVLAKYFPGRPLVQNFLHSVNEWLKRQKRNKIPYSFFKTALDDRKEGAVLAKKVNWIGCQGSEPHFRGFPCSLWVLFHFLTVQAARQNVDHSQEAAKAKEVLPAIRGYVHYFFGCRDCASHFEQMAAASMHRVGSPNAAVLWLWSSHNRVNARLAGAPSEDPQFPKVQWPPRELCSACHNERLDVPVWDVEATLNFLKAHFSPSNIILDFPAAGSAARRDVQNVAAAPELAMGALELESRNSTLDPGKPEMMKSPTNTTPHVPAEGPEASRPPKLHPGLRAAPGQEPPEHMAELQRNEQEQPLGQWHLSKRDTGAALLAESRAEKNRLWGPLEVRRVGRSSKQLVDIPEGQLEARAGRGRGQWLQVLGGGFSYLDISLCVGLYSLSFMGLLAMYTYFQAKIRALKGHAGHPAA

Target | probe-labelled cysteine peptide fold change (10 µM) | probe-labelled cysteine peptide fold change (50 µM)
RAB3GAP1_Q15042_510+511_CCLLHQK (UniProt Q15042) | 0.0769 | 0.00668
PWP2_Q15269_612_AFTALCYSADGHSILAGGMSK (UniProt Q15269) | 0.188 | 0.256
RAB14_P61106_26_SCLLHQFTEK (UniProt P61106) | 0.0774 | 0.0849
PXN_P49023_564_KFHPEHFVCAFCLK (UniProt P49023) | -0.216 | -0.136
RACK1_P63244_207_TNHIGHTGYLNTVTVSPDGSLCASGGK (UniProt P63244) | -0.002 | -0.0287
RAB10_P61026_124_CDMDDK (UniProt P61026) | -0.0218 | -0.142
PYGB_P11216_437_MSVIEEGDCK (UniProt P11216) | 0.0306 | -0.0695
QRSL1_Q9H0R6_203_NPAAHCGLVGFK (UniProt Q9H0R6) | 0.403 | 0.44
PXN_P49023_387_TWHPEHFVCTHCQEEIGSR (UniProt P49023) | -0.213 | -0.113
RAB8A_P61006_123_CDVNDK (UniProt P61006) | -0.0163 | 0.0238
RACGAP1_Q9H0H5_327_VVSHPECR (UniProt Q9H0H5) | 0.14 | 0.0172
RAD50_Q92878_48_TTIIECLK (UniProt Q92878) | 0.0604 | 0.0148
RAB4A_P20338_124_MLASQNIVIILCGNKK (UniProt P20338) | -0.176 | 0.00921
RAB35_Q15286_114_WLHEINQNCDDVCR (UniProt Q15286) | -0.0528 | -0.0754
R3HCC1L_Q7Z5L2_147_KVECLEVETTDVTGHER (UniProt Q7Z5L2) | -0.141 | 0.168
QSOX2_Q6ZRP7_476_YVHTFFGCK (UniProt Q6ZRP7) | 0.00403 | 0.0233
PYCR3_Q53H96_49+56_NLCHFQALGCR (UniProt Q53H96) | 0.0116 | -0.211
RAB39A_Q14964_23_SCLLHR (UniProt Q14964) | 0.178 | 0.086
RAB21_Q9UL25_128_MLGNEICLCIVGNK (UniProt Q9UL25) | -0.0497 | 0.137
RAB4B_P61018_23_SCLLHQFIENK (UniProt P61018) | 0.0769 | -0.0183

Quoted at random: two records from the list, in no set order.
Target | probe-labelled cysteine peptide fold change (10 µM) | probe-labelled cysteine peptide fold change (50 µM)
PXN_P49023_564_KFHPEHFVCAFCLK (UniProt P49023) | -0.216 | -0.136
RAB4B_P61018_23_SCLLHQFIENK (UniProt P61018) | 0.0769 | -0.0183

Remaining list, next part.

Target | probe-labelled cysteine peptide fold change (10 µM) | probe-labelled cysteine peptide fold change (50 µM)
RACK1_P63244_182_VWNLANCK (UniProt P63244) | -0.00342 | -0.0444
QKI_Q96PU8_119_QLEAETGCK (UniProt Q96PU8) | -0.0587 | 0.00781
RAB12_Q6IQ22_159_LDCETDREITR (UniProt Q6IQ22) | 0.223 | 0.0515
RAB11FIP1_Q6WKZ4_711_NTSSLELEESLPEQPETGRQEEELPRFPCK (UniProt Q6WKZ4) | -0.158 | -0.236
RAC3_P60763_105_HHCPHTPILLVGTK (UniProt P60763) | -0.00887 | 0.0468
RABGEF1_Q9UJ41_359_DLSIEEQSECAQDFYHNVAER (UniProt Q9UJ41) | -0.161 | -0.289
RAD18_Q9NS91_223_HLDSCLSR (UniProt Q9NS91) | -0.0164 | 0.125
RABGGTA_Q92696_371_STVLQSELESCK (UniProt Q92696) | 0.0349 | 0.00927
PUM2_Q8TB72_983_ALLIDEVCCQNDGPHSALYTMMK (UniProt Q8TB72) | 0.168 | -0.126
RAD50_Q92878_325_KLVDCHR (UniProt Q92878) | -0.0865 | -0.0476
QSOX1_O00391_393_KVNWIGCQGSEPHFR (UniProt O00391) | 0.0834 | 0.205
PUS7L_Q9H0K6_15_FSSLCFFNDHVGFHGTIK (UniProt Q9H0K6) | 0.0462 | 0.114
RAB35_Q15286_110+114_WLHEINQNCDDVCR (UniProt Q15286) | 0.171 | 0.198
PUS7_Q96PZ0_443_CVEGQLLR (UniProt Q96PZ0) | 0.0363 | 0.0924
RAB3GAP1_Q15042_272_LPFGACEDPISELHLATTWPHLTEGIIVDNDVYSDLDPIQAPHWSVR (UniProt Q15042) | 0.306 | -0.189
QARS_P47897_433_WCIYPTYDYTHCLCDSIEHITHSLCTK (UniProt P47897) | 0.0677 | -0.0868
RAB7B_Q96AH8_142_VPQEVAQGWCR (UniProt Q96AH8) | 0.172 | -0.0601
RAD50_Q92878_633_LFDVCGSQDFESDLDRLK (UniProt Q92878) | 0.192 | 0.109
QTRT2_Q9H974_174_SLLFLDNCLR (UniProt Q9H974) | -0.0933 | 0.16

Source: the supplement of paper PMC12067093, “Discovery and optimisation of a covalent ligand for TRIM25 and its application to targeted protein ubiquitination” (Chemical Science, 2025)
